Assay results published in the supplement of paper PMC7661543.
Differences between knockout arms are mostly noise.

Tested on: HCC-38
Test: relative cell number vs DMSO control (72 h) (% of DMSO); higher = less growth inhibition (more cells)
Procedure: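 QMAP-Seq: a pool of 5 breast cancer cell lines (ZR-75-1, SKBR3, HCC-38, MDA-MB-231, BT-20), each carrying 12 doxycycline-inducible Cas9 sgRNA perturbations (11 knockouts plus non-targeting sgNT), was treated with compounds for 72 h at four 10-fold doses (10 nM-10 uM or 1 nM-1 uM range). Barcodes were amplified and sequenced, and cell number was interpolated from 293T spike-in standard curves. The result is expressed as % of the median of DMSO wells. Two biological replicates.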

C[C@@H](Oc1cc(-c2cnn(C3CCNCC3)c2)cnc1N)c1c(Cl)ccc(F)c1Cl [Crizotinib]
Conditions	relative cell number
sgRNA knockout: sgATF3, 10 nM	93.2
sgRNA knockout: sgATF3, 100 nM	83
sgRNA knockout: sgATF3, 1000 nM	75.51
sgRNA knockout: sgATF3, 10000 nM	21.7
sgRNA knockout: sgATF4, 10 nM	97.5
sgRNA knockout: sgATF4, 100 nM	74.8
sgRNA knockout: sgATF4, 1000 nM	81.6
sgRNA knockout: sgATF4, 10000 nM	21.8
sgRNA knockout: sgATF6, 10 nM	100
sgRNA knockout: sgATF6, 100 nM	86.3
sgRNA knockout: sgATF6, 1000 nM	74
sgRNA knockout: sgATF6, 10000 nM	24.6
sgRNA knockout: sgATG7, 10 nM	93.1
sgRNA knockout: sgATG7, 100 nM	83.1
sgRNA knockout: sgATG7, 1000 nM	81.4
sgRNA knockout: sgATG7, 10000 nM	23.2
sgRNA knockout: sgERN1, 10 nM	87.2
sgRNA knockout: sgERN1, 100 nM	85.8
sgRNA knockout: sgERN1, 1000 nM	70.5
sgRNA knockout: sgERN1, 10000 nM	19.8
sgRNA knockout: sgHSF1, 10 nM	88.8
sgRNA knockout: sgHSF1, 100 nM	89.6
sgRNA knockout: sgHSF1, 1000 nM	66
sgRNA knockout: sgHSF1, 10000 nM	22.6
sgRNA knockout: sgHSF2, 10 nM	98.6
sgRNA knockout: sgHSF2, 100 nM	88.79
sgRNA knockout: sgHSF2, 1000 nM	84.3
sgRNA knockout: sgHSF2, 10000 nM	27.1
sgRNA knockout: sgKEAP1, 10 nM	81.7
sgRNA knockout: sgKEAP1, 100 nM	109.1
sgRNA knockout: sgKEAP1, 1000 nM	62.3
sgRNA knockout: sgKEAP1, 10000 nM	29.2
sgRNA knockout: sgNFE2L2, 10 nM	96.3
sgRNA knockout: sgNFE2L2, 100 nM	74.2
sgRNA knockout: sgNFE2L2, 1000 nM	86.8
sgRNA knockout: sgNFE2L2, 10000 nM	22.6
sgRNA knockout: sgSLC35F2, 10 nM	94.4
sgRNA knockout: sgSLC35F2, 100 nM	89.9
sgRNA knockout: sgSLC35F2, 1000 nM	76.1
sgRNA knockout: sgSLC35F2, 10000 nM	22.4
sgRNA knockout: sgXBP1, 10 nM	97.8
sgRNA knockout: sgXBP1, 100 nM	83.6
sgRNA knockout: sgXBP1, 1000 nM	84.4
sgRNA knockout: sgXBP1, 10000 nM	21.4

CC[C@@]1(O)C(=O)OCc2c1cc1n(c2=O)Cc2cc3c(CN(C)C)c(O)ccc3nc2-1 [Topotecan]
Conditions	relative cell number
sgRNA knockout: sgATF3, 10 nM	54.8
sgRNA knockout: sgATF3, 100 nM	20.4
sgRNA knockout: sgATF3, 1000 nM	11
sgRNA knockout: sgATF3, 10000 nM	9.67
sgRNA knockout: sgATF4, 10 nM	59.6
sgRNA knockout: sgATF4, 100 nM	18.3
sgRNA knockout: sgATF4, 1000 nM	11
sgRNA knockout: sgATF4, 10000 nM	9.2
sgRNA knockout: sgATF6, 10 nM	58.4
sgRNA knockout: sgATF6, 100 nM	18
sgRNA knockout: sgATF6, 1000 nM	10.5
sgRNA knockout: sgATF6, 10000 nM	8.95
sgRNA knockout: sgATG7, 10 nM	53.7
sgRNA knockout: sgATG7, 100 nM	20.4
sgRNA knockout: sgATG7, 1000 nM	12.1
sgRNA knockout: sgATG7, 10000 nM	7.9
sgRNA knockout: sgERN1, 10 nM	54.7
sgRNA knockout: sgERN1, 100 nM	19.3
sgRNA knockout: sgERN1, 1000 nM	11.3
sgRNA knockout: sgERN1, 10000 nM	8.45
sgRNA knockout: sgHSF1, 10 nM	60.8
sgRNA knockout: sgHSF1, 100 nM	23.2
sgRNA knockout: sgHSF1, 1000 nM	12.3
sgRNA knockout: sgHSF1, 10000 nM	6.56
sgRNA knockout: sgHSF2, 10 nM	53.8
sgRNA knockout: sgHSF2, 100 nM	24.2
sgRNA knockout: sgHSF2, 1000 nM	13.6
sgRNA knockout: sgHSF2, 10000 nM	9.97
sgRNA knockout: sgKEAP1, 10 nM	57.3
sgRNA knockout: sgKEAP1, 100 nM	19.8
sgRNA knockout: sgKEAP1, 1000 nM	8.83
sgRNA knockout: sgKEAP1, 10000 nM	9.7
sgRNA knockout: sgNFE2L2, 10 nM	61.54
sgRNA knockout: sgNFE2L2, 100 nM	18.1
sgRNA knockout: sgNFE2L2, 1000 nM	11.3
sgRNA knockout: sgNFE2L2, 10000 nM	7.26
sgRNA knockout: sgSLC35F2, 10 nM	56.1
sgRNA knockout: sgSLC35F2, 100 nM	21.2
sgRNA knockout: sgSLC35F2, 1000 nM	10.1
sgRNA knockout: sgSLC35F2, 10000 nM	8.89
sgRNA knockout: sgXBP1, 10 nM	59.4
sgRNA knockout: sgXBP1, 100 nM	18.8
sgRNA knockout: sgXBP1, 1000 nM	10.8
sgRNA knockout: sgXBP1, 10000 nM	7.72

O=C(c1cc(Cc2n[nH]c(=O)c3ccccc23)ccc1F)N1CCN(C(=O)C2CC2)CC1 [Olaparib]
Conditions	relative cell number
sgRNA knockout: sgATF3, 10 nM	102
sgRNA knockout: sgATF3, 100 nM	103
sgRNA knockout: sgATF3, 1000 nM	86.4
sgRNA knockout: sgATF3, 10000 nM	68.9
sgRNA knockout: sgATF4, 10 nM	90.6
sgRNA knockout: sgATF4, 100 nM	108
sgRNA knockout: sgATF4, 1000 nM	87
sgRNA knockout: sgATF4, 10000 nM	66.3
sgRNA knockout: sgATF6, 10 nM	93.5
sgRNA knockout: sgATF6, 100 nM	101
sgRNA knockout: sgATF6, 1000 nM	89.3
sgRNA knockout: sgATF6, 10000 nM	71
sgRNA knockout: sgATG7, 10 nM	100.6
sgRNA knockout: sgATG7, 100 nM	107
sgRNA knockout: sgATG7, 1000 nM	81.2
sgRNA knockout: sgATG7, 10000 nM	62
sgRNA knockout: sgERN1, 10 nM	87.8
sgRNA knockout: sgERN1, 100 nM	101
sgRNA knockout: sgERN1, 1000 nM	83.2
sgRNA knockout: sgERN1, 10000 nM	62.4
sgRNA knockout: sgHSF1, 10 nM	91.2
sgRNA knockout: sgHSF1, 100 nM	87.7
sgRNA knockout: sgHSF1, 1000 nM	74.6
sgRNA knockout: sgHSF1, 10000 nM	64.7
sgRNA knockout: sgHSF2, 10 nM	91.6
sgRNA knockout: sgHSF2, 100 nM	108.5
sgRNA knockout: sgHSF2, 1000 nM	87.4
sgRNA knockout: sgHSF2, 10000 nM	68
sgRNA knockout: sgKEAP1, 10 nM	114
sgRNA knockout: sgKEAP1, 100 nM	92.6
sgRNA knockout: sgKEAP1, 1000 nM	92.8
sgRNA knockout: sgKEAP1, 10000 nM	67.9
sgRNA knockout: sgNFE2L2, 10 nM	93.4
sgRNA knockout: sgNFE2L2, 100 nM	112
sgRNA knockout: sgNFE2L2, 1000 nM	78.7
sgRNA knockout: sgNFE2L2, 10000 nM	64.9
sgRNA knockout: sgSLC35F2, 10 nM	95.9
sgRNA knockout: sgSLC35F2, 100 nM	106
sgRNA knockout: sgSLC35F2, 1000 nM	85
sgRNA knockout: sgSLC35F2, 10000 nM	67.3
sgRNA knockout: sgXBP1, 10 nM	92.2
sgRNA knockout: sgXBP1, 100 nM	102
sgRNA knockout: sgXBP1, 1000 nM	82.3
sgRNA knockout: sgXBP1, 10000 nM	64.8
